Test [1] addresses two-chain AtLEGβ (two-chain intermediate state) (Arabidopsis thaliana) (UniProt Q39044). Description: SEC; pH 5.0-activated AtLEGβ on an S200 column, 20 mM citric acid pH 5.0, 100 mM NaCl; BSA as size standard; both purified. In general terms: In gel filtration, larger molecules generally elute earlier.
Test [2] addresses proAtLEGβ C211A dead mutant (Arabidopsis thaliana) (UniProt Q39044). Description: crystal structure; proAtLEGβ C211A at 10 mg/ml; 0.5 M ammonium sulfate, 1 M lithium sulfate, 0.1 M trisodium citrate; 2.0 Å, 12 molecules in the asymmetric unit; both purified.
The target in test [3] is Arabidopsis thaliana prolegumain isoform beta (proAtLEGβ) (Arabidopsis thaliana) (UniProt Q39044). Description: SEC; 200 µl proAtLEGβ on an S200 10/300 GL column, 20 mM Hepes pH 7.5, 100 mM NaCl (the results say pH 7.0); BSA as size standard; both purified.

The results in this text go back to paper PMC7489914, “Structural and functional studies of Arabidopsis thaliana legumain beta reveal isoform specific mechanisms of activation and substrate recognition” (The Journal of Biological Chemistry, 2020).

No constants are given. Whether binding was seen depends on the method and setting. Some entries that bind do so weakly or less than the wild type.

B1: two-chain AtLEGβ (two-chain intermediate state) (complex, UniProt Q39044 22-333; Q39044 346-486)
chain 1: ESRGRFEPKILMPTEEANPADQDEDGVGTRWAVLVAGSSGYGNYRHQADVCHAYQILRKGGLKEENIVVLMYDDIANHPLNPRPGTLINHPDGDDVYAGVPKDYTGSSVTAANFYAVLLGDQKAVKGGSGKVIASKPNDHIFVYYADHGGPGVLGMPNTPHIYAADFIETLKKKHASGTYKEMVIYVEACESGSIFEGIMPKDLNIYVTTASNAQESSYGTYCPGMNPSPPSEYITCLGDLYSVAWMEDSETHNLKKETIKQQYHTVKMRTSNYNTYSGGSHVMEYGNNSIKSEKLYLYQGFDPATVNLPLN
chain 2: QRDADLLFLWHMYRTSEDGSRKKDDTLKELTETTRHRKHLDASVELIATILFGPTMNVLNLVREPGLPLVDDWECLKSMVRVFEEHCGSLTQYGMKHMRAFANVCNNGVSKELMEEASTAACGGYSEARYTVHPSILGYSA
With B1, the binding result in test [1] was “no binding”.

B2: proAtLEGβ C211A dead mutant (enzyme, UniProt Q39044 22-486)
chain: ESRGRFEPKILMPTEEANPADQDEDGVGTRWAVLVAGSSGYGNYRHQADVCHAYQILRKGGLKEENIVVLMYDDIANHPLNPRPGTLINHPDGDDVYAGVPKDYTGSSVTAANFYAVLLGDQKAVKGGSGKVIASKPNDHIFVYYADHGGPGVLGMPNTPHIYAADFIETLKKKHASGTYKEMVIYVEAAESGSIFEGIMPKDLNIYVTTASNAQESSYGTYCPGMNPSPPSEYITCLGDLYSVAWMEDSETHNLKKETIKQQYHTVKMRTSNYNTYSGGSHVMEYGNNSIKSEKLYLYQGFDPATVNLPLNELPVKSKIGVVNQRDADLLFLWHMYRTSEDGSRKKDDTLKELTETTRHRKHLDASVELIATILFGPTMNVLNLVREPGLPLVDDWECLKSMVRVFEEHCGSLTQYGMKHMRAFANVCNNGVSKELMEEASTAACGGYSEARYTVHPSILGYSA
modifications: glycosylation at Asn309
Consider B2, for which the binding result in test [2] was “binds weakly”.

B3: Arabidopsis thaliana prolegumain isoform beta (proAtLEGβ) (enzyme, UniProt Q39044 22-486)
chain: ESRGRFEPKILMPTEEANPADQDEDGVGTRWAVLVAGSSGYGNYRHQADVCHAYQILRKGGLKEENIVVLMYDDIANHPLNPRPGTLINHPDGDDVYAGVPKDYTGSSVTAANFYAVLLGDQKAVKGGSGKVIASKPNDHIFVYYADHGGPGVLGMPNTPHIYAADFIETLKKKHASGTYKEMVIYVEACESGSIFEGIMPKDLNIYVTTASNAQESSYGTYCPGMNPSPPSEYITCLGDLYSVAWMEDSETHNLKKETIKQQYHTVKMRTSNYNTYSGGSHVMEYGNNSIKSEKLYLYQGFDPATVNLPLNELPVKSKIGVVNQRDADLLFLWHMYRTSEDGSRKKDDTLKELTETTRHRKHLDASVELIATILFGPTMNVLNLVREPGLPLVDDWECLKSMVRVFEEHCGSLTQYGMKHMRAFANVCNNGVSKELMEEASTAACGGYSEARYTVHPSILGYSA
For B3, in test [3], the binding entry is given as “no binding”.
